# PubChem BioAssay AID504786, Drosophila RNAi Screening Center – 2011
# Purpose: 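Positive regulators of HIF-driven reporter output in Drosophila cells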 (primary screen)
# Cell system: Drosophila S2 cells with a stable HIF luciferase reporter
# Reagent: long dsRNA against Drosophila genes, about 0.2 µg dsRNA per well of a 384-well plate
# Timing: three days of knock-down, then 20 h of DFO before reading
# Treatment: desferrioxamine (DFO) at 100 µM, an iron chelator that mimics hypoxia, for 20 h
# Measured: 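Firefly luciferase driven by the mouse ldh-a hypoxia-response element, measured after 20 h of 100 µM DFO; z-scores per plate, higher means more signal lost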
# Reading the numbers: z-score: higher = stronger loss of HIF reporter signal
# In all, the deposit lists about 21,000 reagents; this is an unselected part of those with a known target gene and a result. 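Primary screen; positive scores mean lost reporter signal, so the sign may be inverted from the usual convention.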 Names joined by + are all predicted targets of the reagent.
target,dsRNA,"z-score, replicate 1","z-score, replicate 2","z-score, replicate 3","z-score, replicate 4"
Rpp14b,DRSC15063,0.1,0.3,,
Prp40,DRSC00612,0.6,1.4,,
mRpS7,DRSC02814,1,0.5,,
CG32651,DRSC18941,-0.2,-0.2,,
CG42337,DRSC11686,-0.2,-0.5,,
CG42337,DRSC11687,2.6,-0.2,,
Crtc,DRSC10578,4.1,0.3,,
CG11151,DRSC19387,-0.2,0.1,,
Sf3b3,DRSC08370,-0.1,0.2,,
CG8814,DRSC00707,-0.4,-0.3,,
robl22E,DRSC00289,-0.2,-0.7,,
CG33252,DRSC19162,0.1,-0.2,,
usp,DRSC18847,1.4,0.3,,
MED23 + CG3700,DRSC04406,0.2,0.4,,
MED23 + CG3700,DRSC04407,-0.2,-0.3,,
CG17819,DRSC15279,0.1,-0.2,,
Plap,DRSC00678,-0.3,-0.3,,
CG18480,DRSC01957,-0.1,-0.4,,
CG31898,DRSC01019,-0.2,-0.1,,
ktub,DRSC04551,-0.3,-0.4,,
CG11656,DRSC14338,-0.3,-0.3,,
sona,DRSC04089,0.2,-0.1,,
sona,DRSC04574,1,0.4,,
sona,DRSC04575,-0.2,-0.2,,
smg,DRSC11397,-0.1,-0.2,,
Spase25,DRSC19776,-0.5,-0.4,,
Mes2,DRSC11593,1.6,0.4,,
Mes2,DRSC11632,0.8,1.8,2.3,1.6
CG10286,DRSC12520,-0.2,0.1,,
CG3588,DRSC18473,-0.1,-1.1,,
brun,DRSC02706,-0.5,-0.3,,
S-Lap3,DRSC10956,-0.1,-0.3,,
CG34026,DRSC17616,-0.3,-0.4,,
Set1,DRSC20930,-0.2,0,,
Set1,DRSC20931,-0.4,-0.6,,
CG6962,DRSC16153,0.7,2.7,,
Msh6,DRSC10759,-0.2,-0.4,,
NHP2,DRSC11229,-0.4,-0.8,,
CG4744,DRSC06887,-0.3,-0.4,,
CG8468,DRSC07190,-0.1,0.2,,
CG7208,DRSC16212,-1,-0.1,,
Bdbt,DRSC15218,0.4,-0.7,,
Pi3K21B,DRSC00771,-0.3,-0.5,,
Pus7,DRSC10703,-0.2,-0.1,,
Rpt5,DRSC16842,8.5,5.7,,
CG33169,DRSC11853,-0.3,-0.6,,
CG14109,DRSC10112,-0.3,-0.9,,
VAChT + ChAT,DRSC13312,-0.3,0.4,,
Scsalpha1,DRSC08698,0.1,0,,
Br140,DRSC06755,1.2,0.1,,
CG3088,DRSC10352,-0.3,-0.3,,
CG17490,DRSC03794,-0.4,-0.4,,
CG17490,DRSC03797,-0.3,0.1,,
unc79,DRSC15746,-0.3,-0.3,,
dgt4,DRSC18659,-0.1,-0.1,,
bif,DRSC18901,-0.3,-0.3,,
bif,DRSC20313,-0.1,-0.3,,
Vm32E,DRSC03474,-0.3,-0.3,,
Cyp9f2,DRSC16635,-0.4,-0.2,,
CG10298,DRSC12522,-0.4,-0.1,,
CG11694,DRSC14354,-0.2,0,,
Fbxl7,DRSC15553,-0.4,-0.6,,
CG5823,DRSC15881,-0.3,-0.2,,
E2f2,DRSC03320,-0.3,-0.9,,
Tsen54,DRSC10527,-0.2,0,,
Sodq,DRSC15924,-0.2,-0.6,,
NAAT1,DRSC18300,0.1,-0.4,,
mRpL41,DRSC06257,2.4,0.9,,
CG6891,DRSC20016,-0.3,-0.2,,
CG3356,DRSC04358,-0.3,-0.3,,
MED22,DRSC18175,0.1,2.7,,
CG13252,DRSC11700,-0.2,1.2,,
CG16721,DRSC18113,-0.1,-0.1,,
Vm26Ab,DRSC03473,-0.4,-0.1,0.1,-0.3
CG4575 (retired record),DRSC18372,-0.1,-0.3,,
CG12182,DRSC08142,-0.1,0.4,,
CG31211,DRSC14953,-0.4,-0.4,-0.2,-0.2
CG31211,DRSC15344,-0.3,-0.2,,
ND-15,DRSC00311,0.1,0.4,,
Cow,DRSC13601,0.5,-0.5,,
Cow,DRSC14680,-0.3,-0.2,,
Ada2a,DRSC16206,-1.1,0,,
CG7945,DRSC10934,-0.4,-0.6,,

Single entries from above:
CG6962 [DRSC16153], z-score, replicate 2 → 2.7
For “z-score, replicate 1”, Cyp9f2 [DRSC16635] reads -0.4
Value for sona [DRSC04574] in “z-score, replicate 1”: 1
Under “z-score, replicate 2”, Br140 [DRSC06755] reads 0.1
Value of usp [DRSC18847] in “z-score, replicate 2”: 0.3
dgt4 [DRSC18659], z-score, replicate 1: -0.1
